These are yes or no findings as the source states them, for the method shown. Binding seen in cells or lysates may run through a third protein. For part of these data: A result given as binding can be weak or reduced; the word gives no strength. Sequences can lack the tags named with a protein.

Assay in all cases: co-IP; HA-tagged LIPG (or its mutants) and Flag-tagged LHBs (or MHBs, SHBs, preS1 2–48 aa) overexpressed in Huh7 cells; lysates incubated with rabbit anti-HA or anti-Flag antibody overnight at 4°C, Protein G Mag Sepharose, immunoblotting
In general terms: In western blotting, separated proteins are transferred to a membrane and probed.

The target in experiment [1] is T1, HA-tagged endothelial lipase (LIPG-HA) (UniProt Q9Y5X9).
T1 sequence: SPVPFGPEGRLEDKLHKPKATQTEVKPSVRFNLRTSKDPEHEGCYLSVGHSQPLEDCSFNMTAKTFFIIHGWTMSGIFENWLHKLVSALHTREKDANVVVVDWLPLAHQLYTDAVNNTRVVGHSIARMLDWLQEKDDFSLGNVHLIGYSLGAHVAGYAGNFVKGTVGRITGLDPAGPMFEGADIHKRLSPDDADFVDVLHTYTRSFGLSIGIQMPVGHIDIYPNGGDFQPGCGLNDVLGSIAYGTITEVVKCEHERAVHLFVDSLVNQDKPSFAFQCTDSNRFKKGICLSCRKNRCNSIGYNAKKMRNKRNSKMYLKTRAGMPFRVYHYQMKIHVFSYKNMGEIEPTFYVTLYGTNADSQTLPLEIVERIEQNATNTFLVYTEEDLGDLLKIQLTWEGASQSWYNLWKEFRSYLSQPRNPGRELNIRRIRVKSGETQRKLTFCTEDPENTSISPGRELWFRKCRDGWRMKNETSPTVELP

Experiment [2] has as its target HBV small surface protein (SHBs) (hepatitis B virus).
Experiment [3] concerns the target Flag-tagged HBV large surface protein (LHBs-Flag) (hepatitis B virus).
The target in experiment [4] is HBV middle surface protein (MHBs) (hepatitis B virus).

Turning to “Flag-tagged HBV large surface protein (LHBs-Flag) (hepatitis B virus)”, the binding result in experiment [1] was “binds”.

B1: HA-tagged endothelial lipase (LIPG-HA) (enzyme, UniProt Q9Y5X9 21-500)
chain: SPVPFGPEGRLEDKLHKPKATQTEVKPSVRFNLRTSKDPEHEGCYLSVGHSQPLEDCSFNMTAKTFFIIHGWTMSGIFENWLHKLVSALHTREKDANVVVVDWLPLAHQLYTDAVNNTRVVGHSIARMLDWLQEKDDFSLGNVHLIGYSLGAHVAGYAGNFVKGTVGRITGLDPAGPMFEGADIHKRLSPDDADFVDVLHTYTRSFGLSIGIQMPVGHIDIYPNGGDFQPGCGLNDVLGSIAYGTITEVVKCEHERAVHLFVDSLVNQDKPSFAFQCTDSNRFKKGICLSCRKNRCNSIGYNAKKMRNKRNSKMYLKTRAGMPFRVYHYQMKIHVFSYKNMGEIEPTFYVTLYGTNADSQTLPLEIVERIEQNATNTFLVYTEEDLGDLLKIQLTWEGASQSWYNLWKEFRSYLSQPRNPGRELNIRRIRVKSGETQRKLTFCTEDPENTSISPGRELWFRKCRDGWRMKNETSPTVELP
On to B1, for which the binding result in experiment [2] is on record as “no binding”; in experiment [3] it was “binds”; in experiment [4], “no binding”.

B2: LIPG N-glycosylation mutant N393A (enzyme, UniProt Q9Y5X9 21-500)
chain: SPVPFGPEGRLEDKLHKPKATQTEVKPSVRFNLRTSKDPEHEGCYLSVGHSQPLEDCSFNMTAKTFFIIHGWTMSGIFENWLHKLVSALHTREKDANVVVVDWLPLAHQLYTDAVNNTRVVGHSIARMLDWLQEKDDFSLGNVHLIGYSLGAHVAGYAGNFVKGTVGRITGLDPAGPMFEGADIHKRLSPDDADFVDVLHTYTRSFGLSIGIQMPVGHIDIYPNGGDFQPGCGLNDVLGSIAYGTITEVVKCEHERAVHLFVDSLVNQDKPSFAFQCTDSNRFKKGICLSCRKNRCNSIGYNAKKMRNKRNSKMYLKTRAGMPFRVYHYQMKIHVFSYKNMGEIEPTFYVTLYGTNADSQTLPLEIVERIEQAATNTFLVYTEEDLGDLLKIQLTWEGASQSWYNLWKEFRSYLSQPRNPGRELNIRRIRVKSGETQRKLTFCTEDPENTSISPGRELWFRKCRDGWRMKNETSPTVELP
On to B2, for which the binding result in experiment [3] is reported as “binds”.

B3: LIPG noncleaved mutant R330A (enzyme, UniProt Q9Y5X9 21-500)
chain: SPVPFGPEGRLEDKLHKPKATQTEVKPSVRFNLRTSKDPEHEGCYLSVGHSQPLEDCSFNMTAKTFFIIHGWTMSGIFENWLHKLVSALHTREKDANVVVVDWLPLAHQLYTDAVNNTRVVGHSIARMLDWLQEKDDFSLGNVHLIGYSLGAHVAGYAGNFVKGTVGRITGLDPAGPMFEGADIHKRLSPDDADFVDVLHTYTRSFGLSIGIQMPVGHIDIYPNGGDFQPGCGLNDVLGSIAYGTITEVVKCEHERAVHLFVDSLVNQDKPSFAFQCTDSNRFKKGICLSCRKNRCNSIGYNAKKMRNKANSKMYLKTRAGMPFRVYHYQMKIHVFSYKNMGEIEPTFYVTLYGTNADSQTLPLEIVERIEQNATNTFLVYTEEDLGDLLKIQLTWEGASQSWYNLWKEFRSYLSQPRNPGRELNIRRIRVKSGETQRKLTFCTEDPENTSISPGRELWFRKCRDGWRMKNETSPTVELP
For the molecule B3, the binding result in experiment [3] is recorded as “binds”.

(Values after paper PMC10476801.)
